Assay results from patent publication US10266567B2, “Peptides and compositions comprising same and uses thereof in the treatment of diseases” (Ariel-University Research and Development Company Ltd., priority 2015, dated 2019).
Entries after “also recorded” stand apart in the source; their conditions may differ. Not every detail of the peptide structures is certain; ends, links or a residue may be inferred. Bridge positions count the residues as written; N and C are the ends. Peptide text beside a SMILES is read from it.

The chains behind the UniProt entries cited, without tags or fusion partners. Residues count along the entry.
UniProt P06756, 891-1048 limits assumed: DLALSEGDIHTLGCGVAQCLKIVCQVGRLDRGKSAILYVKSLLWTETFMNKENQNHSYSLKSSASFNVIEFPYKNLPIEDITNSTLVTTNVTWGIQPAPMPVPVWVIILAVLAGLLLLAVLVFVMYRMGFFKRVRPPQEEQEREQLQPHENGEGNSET
UniProt P06756, 31-889 limits assumed: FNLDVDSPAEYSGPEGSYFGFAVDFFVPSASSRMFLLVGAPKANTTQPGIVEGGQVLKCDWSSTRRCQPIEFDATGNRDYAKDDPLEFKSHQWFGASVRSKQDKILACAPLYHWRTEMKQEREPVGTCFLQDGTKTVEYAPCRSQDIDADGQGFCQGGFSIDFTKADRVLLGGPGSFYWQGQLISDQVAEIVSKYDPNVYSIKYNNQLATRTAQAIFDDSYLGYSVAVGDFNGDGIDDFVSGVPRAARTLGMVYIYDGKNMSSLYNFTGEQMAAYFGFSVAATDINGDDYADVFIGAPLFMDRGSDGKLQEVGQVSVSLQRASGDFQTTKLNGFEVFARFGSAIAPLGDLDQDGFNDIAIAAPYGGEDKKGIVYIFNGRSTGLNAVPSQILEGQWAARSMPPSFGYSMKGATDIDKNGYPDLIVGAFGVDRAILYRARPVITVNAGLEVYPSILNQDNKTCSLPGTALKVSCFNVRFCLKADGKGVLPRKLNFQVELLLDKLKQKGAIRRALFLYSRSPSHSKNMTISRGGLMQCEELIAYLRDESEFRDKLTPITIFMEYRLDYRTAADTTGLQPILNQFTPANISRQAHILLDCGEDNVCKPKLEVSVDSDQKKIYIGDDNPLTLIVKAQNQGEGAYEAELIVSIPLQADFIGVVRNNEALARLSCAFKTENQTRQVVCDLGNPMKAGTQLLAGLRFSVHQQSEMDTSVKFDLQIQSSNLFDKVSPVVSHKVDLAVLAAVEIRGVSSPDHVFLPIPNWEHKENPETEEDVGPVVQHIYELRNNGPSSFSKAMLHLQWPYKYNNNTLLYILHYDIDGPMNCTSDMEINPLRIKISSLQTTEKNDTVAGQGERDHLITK
UniProt P18084, 24-799: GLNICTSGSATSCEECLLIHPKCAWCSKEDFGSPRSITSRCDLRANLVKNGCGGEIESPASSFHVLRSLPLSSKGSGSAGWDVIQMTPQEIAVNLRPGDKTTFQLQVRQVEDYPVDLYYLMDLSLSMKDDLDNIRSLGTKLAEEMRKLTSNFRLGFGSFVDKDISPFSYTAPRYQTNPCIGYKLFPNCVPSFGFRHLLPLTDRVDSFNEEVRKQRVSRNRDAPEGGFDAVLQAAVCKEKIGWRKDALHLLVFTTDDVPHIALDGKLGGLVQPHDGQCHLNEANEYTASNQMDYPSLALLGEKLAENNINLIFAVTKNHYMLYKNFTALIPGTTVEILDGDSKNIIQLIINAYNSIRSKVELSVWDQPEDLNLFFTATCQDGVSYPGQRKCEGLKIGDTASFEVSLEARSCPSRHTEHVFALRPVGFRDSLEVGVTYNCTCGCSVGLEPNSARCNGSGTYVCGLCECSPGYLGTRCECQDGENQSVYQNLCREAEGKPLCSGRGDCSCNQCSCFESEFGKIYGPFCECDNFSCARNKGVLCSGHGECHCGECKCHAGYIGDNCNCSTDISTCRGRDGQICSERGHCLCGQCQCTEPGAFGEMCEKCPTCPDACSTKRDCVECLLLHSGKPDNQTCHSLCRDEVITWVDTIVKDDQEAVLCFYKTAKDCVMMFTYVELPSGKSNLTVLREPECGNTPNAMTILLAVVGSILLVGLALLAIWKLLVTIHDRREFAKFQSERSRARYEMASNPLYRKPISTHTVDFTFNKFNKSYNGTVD
UniProt P08648, 895-1049 limits assumed: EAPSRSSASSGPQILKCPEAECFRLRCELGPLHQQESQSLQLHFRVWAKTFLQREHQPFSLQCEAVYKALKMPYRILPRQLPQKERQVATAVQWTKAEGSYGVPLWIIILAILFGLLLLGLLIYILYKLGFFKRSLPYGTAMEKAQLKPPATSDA
UniProt P08648, 42-894 limits assumed: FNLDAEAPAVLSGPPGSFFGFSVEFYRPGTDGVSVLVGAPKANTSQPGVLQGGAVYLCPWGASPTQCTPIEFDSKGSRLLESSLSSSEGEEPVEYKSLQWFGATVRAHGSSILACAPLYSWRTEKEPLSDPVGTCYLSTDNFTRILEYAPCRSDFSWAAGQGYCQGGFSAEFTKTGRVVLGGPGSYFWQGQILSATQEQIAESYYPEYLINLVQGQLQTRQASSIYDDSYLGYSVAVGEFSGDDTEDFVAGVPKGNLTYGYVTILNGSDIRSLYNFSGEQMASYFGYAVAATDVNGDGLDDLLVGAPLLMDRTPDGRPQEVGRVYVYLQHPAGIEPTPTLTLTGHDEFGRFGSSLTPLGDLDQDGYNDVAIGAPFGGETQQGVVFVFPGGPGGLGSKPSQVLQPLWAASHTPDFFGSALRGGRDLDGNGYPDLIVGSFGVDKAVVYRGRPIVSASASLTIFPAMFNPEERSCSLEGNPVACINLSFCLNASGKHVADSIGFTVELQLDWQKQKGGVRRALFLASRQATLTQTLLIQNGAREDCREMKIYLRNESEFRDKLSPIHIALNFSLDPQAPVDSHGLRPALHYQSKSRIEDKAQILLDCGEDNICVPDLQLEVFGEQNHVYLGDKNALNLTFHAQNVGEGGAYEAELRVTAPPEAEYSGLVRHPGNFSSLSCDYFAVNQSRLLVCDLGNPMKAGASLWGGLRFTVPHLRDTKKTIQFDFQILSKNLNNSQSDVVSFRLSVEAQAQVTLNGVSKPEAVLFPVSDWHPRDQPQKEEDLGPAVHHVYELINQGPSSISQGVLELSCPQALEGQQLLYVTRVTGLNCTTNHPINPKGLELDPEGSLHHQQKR

Tests used:
[1] = system: B16F10 cells; assay: Scratch wound migration assay in melanoma cells; type: cell-based; details: 1 uM, 48 h treatment, 8 hours after wounding
[2] = Elevated Plus Maze (EPM) test in metastatic melanoma mice; type: in vivo; details: 0.3 mg/kg chronic, vs control, p<0.01
Procedure: The EPM apparatus comprises two closed (10 cm×45 cm×40 cm) and two open (10 cm×45 cm) arms that extend from a common central platform (10 cm×10 cm). The black apparatus is elevated to a height of 60 cm above floor level. The tests were conducted at the same time of the day (10.00-12.00 h) during the period of illumination in the mice's colony room. For habituation, all animals were placed in the experimental room one hour prior to the test. Each animal was placed at the center of the maze, facing one of the closed arms. Each mouse spent a five minute session in the EPM, during which the number of entries into open and closed arms as well as time spent in the open and closed arms were video scored.

[3] = system: B16F10 cells; assay: Subcutaneous melanoma mouse model; type: in vivo, C57BL/6 mice; details: 0.1, 0.3, 0.5 mg/kg daily, day 23, 5×10^5 cells s.c.
[4] = biological target: αvβ5 integrin (Homo sapiens, UniProt P06756+P18084); assay: FITC-labeled ALOS4 binding to purified integrin αvβ5; details: FITC-labeled ALOS4, 100-1 μM, 30 min
[5] = system: B16-F10 melanoma cells; assay: Metastatic melanoma mice model using B16F10 cells; type: in vivo, C57BL/6 mice
Procedure: Metastatic melanoma mice model using B16F10 cells. Murine B16F10 cells grown in RPMI were harvested by trypsinization and washed with PBS. The cells were counted and resuspended in PBS to final concentrations of 1.0×10^5 cells/mL and were maintained at 4° C. for immediate i.v inoculation into the tail vein of C57BL6 male mice (Harlan Labs). Next day, following tumor cell inoculation, these animals received i.p. injection of ALOS peptide or saline. Injections were performed daily throughout the working week. Mice were weighed daily on the day of injection.
For analysis of the peptides' effect on melanoma nodule formation all mice were sacrificed 18 days following the i.v. injection. Organs were dissected analyzed visually. The lungs of sacrificed mice were rinsed in saline and fixed with Bouin's solution. The total number of visible nodules on the lung surface per animal was counted.
For analysis of the peptides' effect on survival of melanoma cell-inoculated mice, animals were observed several times a week for signs of lethargy such as weight loss, hunched position and epilepsy. In order to lessen suffering, when these symptoms occurred, mice were euthanized with cervical dislocation after CO2 anesthesia. Survival time was recorded and long-term survivors were defined as animals surviving longer than 3 times the median survival of non-treated animals. […]

[6] = biological target: α5β1 integrin (Homo sapiens, UniProt P05556+P08648); assay: FITC-labeled ALOS4 binding to purified integrin α5β1; details: FITC-labeled ALOS4, 100-1 μM, 30 min

## CC(C)C[C@@H]1NC(=O)[C@H](CO)NC(=O)CNC(=O)[C@H](C)NC(=O)[C@H](CO)NC(=O)[C@H](CO)NC(=O)[C@@H](N)CSSC[C@@H](C(=O)O)NC(=O)[C@H](Cc2ccccc2)NC1=O [ALOS4, CSSAGSLFC] (H-CSSAGSLFC-OH; disulfide 1-9)
[1]
  Cell migration rate (relative wound closure): approximately 80 % of control
[2]
  EPM performance (ratio of time spent in open arms to total time), anxiolytic effect: significantly increased the performance of the mice; also recorded: exerted anxiolytic effect
[3]
  Tumor volume, subcutaneous melanoma model: markedly reduced tumor volume
[4]
  Binding to αvβ5 integrin: binds
[5]; 0.3 mg/kg daily i.p., 5×10^4 B16-F10 cells i.v., day 18
  Number of metastatic melanoma sites (visible nodules) in the lungs: significantly blocked the number of metastatic melanoma sites in the lungs
[5]; metastatic melanoma mice, ALOS vs saline
  Animals' weight during treatment course: did not show weight loss
[6]
  Binding to α5β1 integrin: binds
